Reference: publication PMC12519062
Results are given in words; binding and its absence hold for the method and conditions named. Some binding calls cover weakened binding; strength is not graded here. Where a sequence is shown, tags or fusion partners need not be part of it.

Target: His12‐CPEB3 [126–169] (mouse) (UniProt Q7TN99)
Test: thioflavin T fluorescence + transmission electron microscopy; amyloid fibril formation: 3 mM protein in 50 mM MES pH 5.5 with 3 M Gu-HCl diluted 60-fold into 50 mM MES pH 5.5 (50 uM final), vortexed at 37 °C for 96 h; ThT fluorescence, TEM of the collected aggregates (CD too for the CPEB3 fragment); both purified

binding: binds
Binder: SFFQGITPVNGTMLFQNFPHHVNPVFGGTFSPQIGLAQTQHHQQ (domain or fragment, UniProt Q7TN99 126-169) [His12‐CPEB3 [126–169]]
